From PubChem BioAssay AID194 (DTP/NCI, 2004)
The list is a part of this screen's results and no random one: it gathers tests that were run many times, whatever their T/C, doses with no T/C, and many T/C values between a quarter and a half above the control. Further doses and runs are listed elsewhere. T/C: endpoint of the treated group in % of that of the vehicle group. Schedule codes are those of the source, taken here to give the interval after Q, in days (D) or hours (H), and the number of doses after X. Some entries were tested several times; their values stand side by side, smallest first. Some entries give survivors of the animals treated and no T/C: the source holds a T/C of zero for them, seemingly a mark for toxic or unscored doses. Some doses without a T/C left all or most animals alive at the check, yet need not have been tolerated: survival well below the control is almost never listed, so the zero probably covers shortened survival too. Counts of survivors are from the toxicity check (mostly the fifth day) where no day follows; animals may have died later. For survival time, this PubChem deposit counts one and a half times the control or more as active, and values a quarter to a half above the control carry no call in these data; other NCI protocols may use other cut-offs. Signs of the kind (2×) count equal records among those shown. Some T/C values are followed by the survivors on the day toxicity was checked, most often the fifth; where none is given, no animal had died by that day.

System: BDF1 mice, B16 melanoma s.c., survival/tumor T/C
Assay: NCI In Vivo Anticancer Drug Screen. Data for tumor model B16 Melanoma (subcutaneous) in B6D2F1 (BDF1) mice
Experimental: The antitumor activity of compounds was measured in mice bearing transplantable tumors. Survival or tumor size were measured and the results are expressed as the measurement made in the treated group (T) divided by the measurement made in the vehicle treated control group (C). The tumor model used in this assay is B16 Melanoma (subcutaneous) in B6D2F1 (BDF1) mice

[1] = T/C endpoint: median survival time, dose: 0.13 mg/kg/injection, schedule: Q01DX009 (ip), vehicle: saline, higher T/C = longer survival
[2] = T/C endpoint: median survival time, dose: 2.0 mg/kg/injection, schedule: Q01DX009 (ip), vehicle: saline, higher T/C = longer survival

SMILES: CN[C@H]1CCc2cc(OC)c(OC)c(OC)c2-c2ccc(OC)c(=O)cc21
- T/C (T/C endpoint: median survival time, dose: 5.0 mg/kg/injection, schedule: Q01DX009 (ip), vehicle: saline, higher T/C = longer survival): 133 % of control
- survivor count (T/C endpoint: median survival time, dose: 20.0 mg/kg/injection, schedule: Q01DX009 (ip), vehicle: saline, higher T/C = longer survival): 10 of 10

SMILES: O=NN(CCCl)C(=O)NCCCl
- T/C (T/C endpoint: median survival time, dose: 3.0 mg/kg/injection, schedule: Q02DX009 (ip), vehicle: saline + alcohol, higher T/C = longer survival): 134 % of control
- T/C (T/C endpoint: median survival time, dose: 5.18 mg/kg/injection, schedule: Q01DX007 (ip), vehicle: Klucel (hydroxypropylcellulose) (HPC), higher T/C = longer survival): 126 % of control
- T/C (T/C endpoint: median survival time, dose: 6.0 mg/kg/injection, schedule: Q02DX009 (ip), vehicle: saline + alcohol, higher T/C = longer survival): 138 % of control
- T/C (T/C endpoint: median survival time, dose: 8.64 mg/kg/injection, schedule: Q01DX007 (ip), vehicle: Klucel (hydroxypropylcellulose) (HPC), higher T/C = longer survival): 135 % of control [9 of 10 alive on day 55]
- T/C (T/C endpoint: median survival time, dose: 12.0 mg/kg/injection, schedule: Q02DX009 (ip), vehicle: saline + alcohol, higher T/C = longer survival): 142 % of control
- survivor count (T/C endpoint: median survival time, dose: 24.0 mg/kg/injection, schedule: Q01DX007 (ip), vehicle: Klucel (hydroxypropylcellulose) (HPC), higher T/C = longer survival): 2 of 10 on day 55
- survivor count (T/C endpoint: median survival time, dose: 24.0 mg/kg/injection, schedule: Q02DX009 (ip), vehicle: saline + alcohol, higher T/C = longer survival): 10 of 10

SMILES: N[C@H](C(=O)O)[C@H]1ON=C(Cl)[C@@H]1O
- T/C (T/C endpoint: median survival time, dose: 64.0 mg/kg/injection, schedule: Q01DX009 (ip), vehicle: saline, higher T/C = longer survival): 131 % of control
- survivor count (T/C endpoint: median survival time, dose: 800.0 mg/kg/injection, schedule: Q01DX009 (ip), vehicle: saline with Tween-80, higher T/C = longer survival): 10 of 10

SMILES: COc1cccc2c1C(=O)c1c(O)c3c(c(O)c1C2=O)C[C@@](O)(C(C)=O)C[C@@H]3OC1CC(N)C(O)C(C)O1 (stereo partly drawn)
- T/C [1]: 87, 90, 102, 111 % of control
- survivor count [1]: 6 of 6
- T/C (T/C endpoint: median survival time, dose: 0.25 mg/kg/injection, schedule: Q01DX009 (ip), vehicle: saline, higher T/C = longer survival): 88, 89, 95, 98 (2×), 107, 109, 146 % of control
- T/C (T/C endpoint: median survival time, dose: 0.5 mg/kg/injection, schedule: Q01DX009 (ip), vehicle: saline, higher T/C = longer survival): 91, 94, 95, 97, 101, 102, 107, 111 % of control
- T/C (T/C endpoint: median survival time, dose: 1.0 mg/kg/injection, schedule: Q01DX009 (ip), vehicle: saline, higher T/C = longer survival): 88, 94, 100, 103, 109, 110, 128, 137 % of control
- T/C [2]: 87, 94, 111 % of control (2×)
- survivor count [2]: 5 of 6, 10 of 10, 6 of 6
- survivor count (T/C endpoint: median survival time, dose: 4.0 mg/kg/injection, schedule: Q01DX009 (ip), vehicle: saline, higher T/C = longer survival): 10 of 10
- T/C (T/C endpoint: median tumor weight (est.), dose: 0.25 mg/kg/injection, schedule: Q01DX009 (ip), vehicle: saline, evaluated on day 15, higher T/C = larger tumour): 136 % of control
- T/C (T/C endpoint: median tumor weight (est.), dose: 0.5 mg/kg/injection, schedule: Q01DX009 (ip), vehicle: saline, evaluated on day 15, higher T/C = larger tumour): 132 and 140 % of control

SMILES: NCCc1ccc(O)c(O)c1
- survivor count (T/C endpoint: median survival time, dose: 75.0 mg/kg/injection, schedule: Q01DX009 (ip), vehicle: saline, higher T/C = longer survival): 6 of 10
- survivor count (T/C endpoint: median survival time, dose: 150.0 mg/kg/injection, schedule: Q01DX009 (ip), vehicle: saline, higher T/C = longer survival): 6 of 10
- survivor count (T/C endpoint: median survival time, dose: 300.0 mg/kg/injection, schedule: Q01DX009 (ip), vehicle: saline, higher T/C = longer survival): 8 of 10
- survivor count (T/C endpoint: median survival time, dose: 600.0 mg/kg/injection, schedule: Q01DX009 (ip), vehicle: saline, higher T/C = longer survival): 8 of 10

SMILES: CC(CN1CC(=O)NC(=O)C1)N1CC(=O)NC(=O)C1 (stereo not drawn)
- T/C (T/C endpoint: median survival time, dose: 8.0 mg/kg/injection, schedule: Q01DX009 (ip), vehicle: Klucel (hydroxypropylcellulose) (HPC), higher T/C = longer survival): 126 % of control
- T/C (T/C endpoint: median survival time, dose: 16.0 mg/kg/injection, schedule: Q01DX009 (ip), vehicle: Klucel (hydroxypropylcellulose) (HPC), higher T/C = longer survival): 144 % of control
- T/C (T/C endpoint: median survival time, dose: 32.0 mg/kg/injection, schedule: Q01DX009 (ip), vehicle: Klucel (hydroxypropylcellulose) (HPC), higher T/C = longer survival): 127 and 132 % of control
- survivor count (T/C endpoint: median survival time, dose: 64.0 mg/kg/injection, schedule: Q01DX009 (ip), vehicle: Klucel (hydroxypropylcellulose) (HPC), higher T/C = longer survival): 10 of 10
- T/C (T/C endpoint: median survival time, dose: 100.0 mg/kg/injection, schedule: Q04DX003 (ip), vehicle: saline, higher T/C = longer survival): 132 % of control
- survivor count (T/C endpoint: median survival time, dose: 128.0 mg/kg/injection, schedule: Q01DX009 (ip), vehicle: Klucel (hydroxypropylcellulose) (HPC), higher T/C = longer survival): 10 of 10
- survivor count (T/C endpoint: median survival time, dose: 240.0 mg/kg/injection, schedule: Q01DX009 (ip), vehicle: saline, higher T/C = longer survival): 10 of 10
- survivor count (T/C endpoint: median survival time, dose: 800.0 mg/kg/injection, schedule: Q04DX003 (ip), vehicle: saline, higher T/C = longer survival): 10 of 10
